Test results: paper doi:10.1101/2024.03.18.585503
Positions count from the first letter of the chain named. No constants are given. Whether binding was seen depends on the method and setting. In cells and extracts the contact can be indirect. These calls come from enrichment with a bait or labelling near it, and not all partners need be listed. For some of these results: A no says only that the protein was not detected with the bait. For some of these results: Tags and fused reporters may be left off the sequences shown.

By UniProt entry, the sequences of proteins in these tests, tags left out.
UniProt P0CX54: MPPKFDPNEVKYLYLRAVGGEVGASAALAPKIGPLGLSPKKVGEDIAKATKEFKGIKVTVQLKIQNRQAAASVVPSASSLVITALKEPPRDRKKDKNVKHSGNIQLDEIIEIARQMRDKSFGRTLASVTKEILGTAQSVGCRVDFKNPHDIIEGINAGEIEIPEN
UniProt P0CX83: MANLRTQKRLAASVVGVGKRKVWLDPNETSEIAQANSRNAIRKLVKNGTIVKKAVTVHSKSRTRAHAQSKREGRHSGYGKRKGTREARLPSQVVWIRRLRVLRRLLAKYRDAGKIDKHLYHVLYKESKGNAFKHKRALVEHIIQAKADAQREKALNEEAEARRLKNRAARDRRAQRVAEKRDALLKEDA
UniProt P0CX53: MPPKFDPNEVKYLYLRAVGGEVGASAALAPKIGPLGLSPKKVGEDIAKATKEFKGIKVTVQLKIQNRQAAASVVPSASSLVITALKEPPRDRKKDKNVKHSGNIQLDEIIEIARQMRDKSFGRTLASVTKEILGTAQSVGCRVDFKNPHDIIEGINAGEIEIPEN
UniProt P0CX82: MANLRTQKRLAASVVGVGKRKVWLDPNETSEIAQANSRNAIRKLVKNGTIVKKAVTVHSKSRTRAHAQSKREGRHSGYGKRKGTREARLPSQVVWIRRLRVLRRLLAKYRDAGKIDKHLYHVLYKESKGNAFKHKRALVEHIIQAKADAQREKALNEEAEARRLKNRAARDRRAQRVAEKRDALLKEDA

T1: Rpl34a-FLAG (S. cerevisiae) (UniProt P87262)
T1 sequence: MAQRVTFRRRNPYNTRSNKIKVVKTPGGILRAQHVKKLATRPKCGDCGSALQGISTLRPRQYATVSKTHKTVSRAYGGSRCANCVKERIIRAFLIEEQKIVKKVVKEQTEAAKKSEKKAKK

T2: Rpl34b-FLAG (S. cerevisiae) (UniProt P40525)
T2 sequence: T1 sequence with I90V, A119S

B1: Rpl17a (protein, UniProt P05740 1-184)
chain: MARYGATSTNPAKSASARGSYLRVSFKNTRETAQAINGWELTKAQKYLEQVLDHQRAIPFRRFNSSIGRTAQGKEFGVTKARWPAKSVKFVQGLLQNAAANAEAKGLDATKLYVSHIQVNQAPKQRRRTYRAHGRINKYESSPSHIELVVTEKEEAVAKAAEKKVVRLTSRQRGRIAAQKRIAA
B2: Rpl36a (protein, UniProt P05745 1-100)
chain: MTVKTGIAIGLNKGKKVTSMTPAPKISYKKGAASNRTKFVRSLVREIAGLSPYERRLIDLIRNSGEKRARKVAKKRLGSFTRAKAKVEEMNNIIAASRRH
B3: Rpl22b (protein, UniProt P56628 1-122)
chain: MAPNTSRKQKVIKTLTVDVSSPTENGVFDPASYSKYLIDHIKVDGAVGNLGNAIEVTEDGSIVTVVSSAKFSGKYLKYLTKKYLKKNQLRDWIRFVSIRQNQYKLVFYQVTPEDADEEEDDE
B4: Stm1 (protein, UniProt P39015 1-273)
chain: MSNPFDLLGNDVEDADVVVLPPKEIVKSNTSSKKADVPPPSADPSKARKNRPRPSGNEGAIRDKTAGRRNNRSKDVTDSATTKKSNTRRATDRHSRTGKTDTKKKVNQGWGDDKKELSAEKEAQADAAAEIAEDAAEAEDAGKPKTAQLSLQDYLNQQANNQFNKVPEAKKVELDAERIETAEKEAYVPATKVKNVKSKQLKTKEYLEFDATFVESNTRKNFGDRNNNSRNNFNNRRGGRGARKGNNTANATNSANTVQKNRNIDVSNLPSLA
B5: Mrt4, P33201 1-236 (protein)
chain: MPRSKRSKLVTLAQTDKKGRENKERIFDEVREALDTYRYVWVLHLDDVRTPVLQEIRTSWAGSKLIMGKRKVLQKALGEKREEEYKENLYQLSKLCSGVTGLLFTDEDVNTVKEYFKSYVRSDYSRPNTKAPLTFTIPEGIVYSRGGQIPAEEDVPMIHSLEPTMRNKFEIPTKIKAGKITIDSPYLVCTEGEKLDVRQALILKQFGIAASEFKVKVSAYYDNDSSTVESTNINME
B6: Nsa2 (protein, UniProt P40078 1-261)
chain: MPQNDYIERHIKQHGKRLDHEERKRKREARESHKISERAQKLTGWKGKQFAKKRYAEKVSMRKKIKAHEQSKVKGSSKPLDTDGDALPTYLLDREQNNTAKAISSSIKQKRLEKADKFSVPLPKVRGISEEEMFKVIKTGKSRSKSWKRMITKHTFVGEGFTRRPVKMERIIRPSALRQKKANVTHPELGVTVFLPILAVKKNPQSPMYTQLGVLTKGTIIEVNVSELGMVTAGGKVVWGKYAQVTNEPDRDGCVNAVLLV
B7: Idp1 (enzyme, UniProt P21954 17-428)
chain: FSKIKVKQPVVELDGDEMTRIIWDKIKKKLILPYLDVDLKYYDLSVESRDATSDKITQDAAEAIKKYGVGIKCATITPDEARVKEFNLHKMWKSPNGTIRNILGGTVFREPIVIPRIPRLVPRWEKPIIIGRHAHGDQYKATDTLIPGPGSLELVYKPSDPTTAQPQTLKVYDYKGSGVAMAMYNTDESIEGFAHSSFKLAIDKKLNLFLSTKNTILKKYDGRFKDIFQEVYEAQYKSKFEQLGIHYEHRLIDDMVAQMIKSKGGFIMALKNYDGDVQSDIVAQGFGSLGLMTSILVTPDGKTFESEAAHGTVTRHYRKYQKGEETSTNSIASIFAWSRGLLKRGELDNTPALCKFANILESATLNTVQQDGIMTKDLALACGNNERSAYVTTEEFLDAVEKRLQKEIKSIE
B8: Fox2 (enzyme, UniProt Q02207 1-900)
chain: MPGNLSFKDRVVVITGAGGGLGKVYALAYASRGAKVVVNDLGGTLGGSGHNSKAADLVVDEIKKAGGIAVANYDSVNENGEKIIETAIKEFGRVDVLINNAGILRDVSFAKMTEREFASVVDVHLTGGYKLSRAAWPYMRSQKFGRIINTASPAGLFGNFGQANYSAAKMGLVGLAETLAKEGAKYNINVNSIAPLARSRMTENVLPPHILKQLGPEKIVPLVLYLTHESTKVSNSIFELAAGFFGQLRWERSSGQIFNPDPKTYTPEAILNKWKEITDYRDKPFNKTQHPYQLSDYNDLITKAKKLPPNEQGSVKIKSLCNKVVVVTGAGGGLGKSHAIWFARYGAKVVVNDIKDPFSVVEEINKLYGEGTAIPDSHDVVTEAPLIIQTAISKFQRVDILVNNAGILRDKSFLKMKDEEWFAVLKVHLFSTFSLSKAVWPIFTKQKSGFIINTTSTSGIYGNFGQANYAAAKAAILGFSKTIALEGAKRGIIVNVIAPHAETAMTKTIFSEKELSNHFDASQVSPLVVLLASEELQKYSGRRVIGQLFEVGGGWCGQTRWQRSSGYVSIKETIEPEEIKENWNHITDFSRNTINPSSTEESSMATLQAVQKAHSSKELDDGLFKYTTKDCILYNLGLGCTSKELKYTYENDPDFQVLPTFAVIPFMQATATLAMDNLVDNFNYAMLLHGEQYFKLCTPTMPSNGTLKTLAKPLQVLDKNGKAALVVGGFETYDIKTKKLIAYNEGSFFIRGAHVPPEKEVRDGKRAKFAVQNFEVPHGKVPDFEAEISTNKDQAALYRLSGDFNPLHIDPTLAKAVKFPTPILHGLCTLGISAKALFEHYGPYEELKVRFTNVVFPGDTLKVKAWKQGSVVVFQTIDTTRNVIVLDNAAVKLSQAKSKL

Experiments:
Test in all cases: affinity purification with mass spectrometry
[1] = target: Rpl12b-FLAG (S. cerevisiae) (UniProt P0CX54)
[2] = target: Rpl19b-FLAG (S. cerevisiae) (UniProt P0CX83)
[3] = target: Rpl12a-FLAG (S. cerevisiae) (UniProt P0CX53)
[4] = target: Rpl19a-FLAG (S. cerevisiae) (UniProt P0CX82)
[5] = target: T1, Rpl34a-FLAG (S. cerevisiae)
[6] = target: T2, Rpl34b-FLAG (S. cerevisiae)
[7] = target: Rpl12a-FLAG (S. cerevisiae), P0CX53; settings: remark: other sources report otherwise

Row | Binder | binding [1] | binding [2] | also measured
1 | B1 | binds | binds | 
2 | B2 | binds | binds | binding [3]: binds; binding [4]: binds; binding [5]: binds; binding [6]: binds
3 | B3 | binds |  | 
4 | B4 | binds | binds | binding [3]: binds; binding [4]: binds; binding [5]: binds; binding [6]: binds
5 | B5 |  |  | binding [7]: no binding
6 | B6 | no binding |  | 
7 | B7 | no binding |  | 
8 | B8 | no binding |  | 
